The values below come from article PMC7819943, “Rice protein-binding microarrays: a tool to detect cis-acting elements near promoter regions in rice”.

The chains behind the UniProt entries cited, without tags or fusion partners.
UniProt Q0JBA9, entry or part of it: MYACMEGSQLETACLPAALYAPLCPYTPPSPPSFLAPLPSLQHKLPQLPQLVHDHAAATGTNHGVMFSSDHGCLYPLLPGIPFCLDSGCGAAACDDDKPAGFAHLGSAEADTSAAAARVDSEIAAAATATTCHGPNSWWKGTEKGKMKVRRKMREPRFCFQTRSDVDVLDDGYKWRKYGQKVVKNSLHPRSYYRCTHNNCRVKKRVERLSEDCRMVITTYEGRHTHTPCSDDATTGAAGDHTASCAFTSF

The other results are listed elsewhere or left out.

The target of this assay is OsWRKY34 (Oryza sativa, UniProt Q0JBA9 1-250). The experiment in a line: protein-binding microarray (RPBM); PBS, 2% BSA, 51.3 ng/ul salmon testes DNA, 50 uM zinc acetate, 200 nM TF, 25 C, 1 h; high values mean tight binding. As to conditions: protein: recombinant; tags: N-terminal polyhistidine and DsRed monomer fusion (pET32a); label: CyDye5-dUTP incorporated in the synthesized complementary strand; 3' TTTTT single-stranded linker to array surface; dsDNA, one strand shown. In a few lines:
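The binding signal is fluorescence intensity per array feature (arbitrary units). Readings came from an Axon 4000B scanner after a washed, 2% BSA-blocked, double-stranded custom Agilent array had been incubated for 1 h at 25 °C with 200 nM protein and 50 µM zinc acetate. The protein was a Ni–NTA-purified transcription factor fused N-terminally to polyhistidine and DsRed, expressed in E. coli BL21-CodonPlus.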
Take “TACCTTCTGACGTTATCTTCTGCTTTGATTTTACGTCACACGGAGTCACCTAGTGCAG”: the binding signal is 10100 fluorescence intensity (a.u.). For “GTCCCTCCGTCTTATTTTAAGTGTATTTATGGTTTTTTTTCGGAGTCACCTAGTGCAG”, the binding signal is 9320 fluorescence intensity (a.u.).

For “TTATTCCTGGTGATGTTATAAATTGATTTCTCTATAGACACGGAGTCACCTAGTGCAG”, the binding signal was 8150 fluorescence intensity (a.u.). In the case of “GCTACACAAAATATTTTTGTGCCATTATTTTTTTTCCATACGGAGTCACCTAGTGCAG”, the binding signal was 8400 fluorescence intensity (a.u.). For “AATAGTTCGTGTGACGTTAATGGTCCCGTTCTTTGCTTCACGGAGTCACCTAGTGCAG”, the binding signal was 9370 fluorescence intensity (a.u.). For the sequence “AACCTGAACACATATTCATCAAACAAACACATTTATATTTCGGAGTCACCTAGTGCAG”, the binding signal is 8230 fluorescence intensity (a.u.).

On to “TTCTCTGTTTCTTCTGCCTTCACCACCTGCTCCACATTTTCGGAGTCACCTAGTGCAG”, for which the binding signal was 10900 fluorescence intensity (a.u.).

Consider “AGTAGCATTTGTTGACTTGTTGTATTCTTCTAGCCTTTTTCGGAGTCACCTAGTGCAG”, for which the binding signal is 13800 fluorescence intensity (a.u.). The same measure for “GCTGCGGCCGTCAACGTGGTCGTCGTCTCCGCGGCCGCCGCGGAGTCACCTAGTGCAG”: 46900 fluorescence intensity (a.u.). Turning to “ACCACTCTCTTCAAAAATAGGTCCTCTACAGTACTGTCTTCGGAGTCACCTAGTGCAG”, the binding signal is 8780 fluorescence intensity (a.u.). Regarding “GGGTTGGAAGGGAGGCGGCGGGAGAGCACGGTAGCGCTAGCGGAGTCACCTAGTGCAG”, the binding signal was 10600 fluorescence intensity (a.u.). To “AGAATTGATTAGCTCTTGTTTCTATCATGTTAAACACATTCGGAGTCACCTAGTGCAG” belongs 8420 fluorescence intensity (a.u.); to “AGCCGGCTGCATGCGTCGCTCTTCGCCCACCGCTGCGCCGCGGAGTCACCTAGTGCAG”, 8440 fluorescence intensity (a.u.); to “ATATCTAGACAATCAAGCTGTTGACCGAGTTTTCAGGGTGCGGAGTCACCTAGTGCAG”, 10600 fluorescence intensity (a.u.). Take “CCGCGTCGCCGCCACCACCACGTCGCCTGTCGCCAGCCTACGGAGTCACCTAGTGCAG”: the binding signal is 8270 fluorescence intensity (a.u.). With “ATTTGACCACGTTGACCAATTGTATAAAATTGGGGACGACCGGAGTCACCTAGTGCAG”, the binding signal is 11400 fluorescence intensity (a.u.). Regarding “TCAGTGCAAAATATCTCGTACATTAGTATCATCACTTTCTCGGAGTCACCTAGTGCAG”, the binding signal is 8360 fluorescence intensity (a.u.).

Take “GAGTACTTTCTGACTCTGAGCTTGAAGTCTATGCCACATCCGGAGTCACCTAGTGCAG”: the binding signal was 8280 fluorescence intensity (a.u.).

As for “AATTTCACTTTCGATCTTAATTATTTTACCTGGTTCATTTCGGAGTCACCTAGTGCAG”, the binding signal was 10900 fluorescence intensity (a.u.). For “GCCGATAGAGGCATGGGGTTTGTTCAGATTGATGTCATTTCGGAGTCACCTAGTGCAG”, the binding signal is 9370 fluorescence intensity (a.u.). Regarding “TCAGAGGTTTTCTTTTCTTCTTCTGCGAATTTCCTCTGACCGGAGTCACCTAGTGCAG”, the binding signal is 10100 fluorescence intensity (a.u.). As to “TATATTTTTTACAGGTTTGTGGGCATTTTTCTCTGGGCCCCGGAGTCACCTAGTGCAG”, the binding signal was 8640 fluorescence intensity (a.u.). With “AATTTTTCTATGGTTCTTGTGTGTCCCTAAGCGTGAAAAACGGAGTCACCTAGTGCAG”, the binding signal was 9200 fluorescence intensity (a.u.). For the sequence “ATACCATCATATACACCAGCCATTGATCTTTTTTTTTAATCGGAGTCACCTAGTGCAG”, the binding signal is 8390 fluorescence intensity (a.u.). As for “ATGTGGTCTATAGAAGAAAAATATTTCTATTTCATTTCATCGGAGTCACCTAGTGCAG”, the binding signal is 8130 fluorescence intensity (a.u.). The same measure for “AGTCCACCTCTGCGCCCGGCCCGCCGCCGCCTCGTCGCCACGGAGTCACCTAGTGCAG”: 10900 fluorescence intensity (a.u.); for “GATTGGTTTTGCTTCGCTCTCATGAAATTGTTTCATAGTACGGAGTCACCTAGTGCAG”: 8430 fluorescence intensity (a.u.); for “GCGCGCTCCAATGTCGCCACGCTGTGGCGCCCTCGTGTCGCGGAGTCACCTAGTGCAG”: 8200 fluorescence intensity (a.u.). For “AGTCCACACACACACTTCTTGCACATCCGGTACTTGTCAACGGAGTCACCTAGTGCAG”, the binding signal was 13400 fluorescence intensity (a.u.). Turning to “AGTAGGATCCATTTGTCATATATATATATATTTTATTAAACGGAGTCACCTAGTGCAG”, the binding signal was 10300 fluorescence intensity (a.u.). As to “GCGCTGCACCACTCGCCGCTTTACCCGCCGTTCTCCTCCTCGGAGTCACCTAGTGCAG”, the binding signal is 14300 fluorescence intensity (a.u.). As to “GTCTCCCGGTGAGGAGCCCCACGCTCCATCAATGTATTTTCGGAGTCACCTAGTGCAG”, the binding signal was 8230 fluorescence intensity (a.u.). Take “GTTTCAAGTAATTTCATGGGTCTTTTGTTTTTTGAGACAGCGGAGTCACCTAGTGCAG”: the binding signal is 9110 fluorescence intensity (a.u.). With “GTTTGGTATTGGATTCGTCTTGTTTTGGGCATTTCTTGCTCGGAGTCACCTAGTGCAG”, the binding signal was 11200 fluorescence intensity (a.u.). For the sequence “GCTTCCGACGTGCTTCTGCCATTCATTACACCATGTTTCTCGGAGTCACCTAGTGCAG”, the binding signal was 15700 fluorescence intensity (a.u.).

Regarding “TTGGCGCCAAGTTATCTGCTTGCCGCGCGCCATTTCTCTCCGGAGTCACCTAGTGCAG”, the binding signal is 8850 fluorescence intensity (a.u.). Take “GGGTGTTGCCGTGTTTTCTATTTTCCCAGTGGGTTCTTCACGGAGTCACCTAGTGCAG”: the binding signal is 8360 fluorescence intensity (a.u.). For “GCTTATTTCCTTCACAGGGCTGAGTGGCTCTATGCATTTTCGGAGTCACCTAGTGCAG”, the binding signal is 9080 fluorescence intensity (a.u.).

As to “ATAGACTTTTTCCTTGTGAATTACGGGCCCCACCTGTCAACGGAGTCACCTAGTGCAG”, the binding signal was 8480 fluorescence intensity (a.u.).

Turning to “CTTCCTCCTCCGTTGGGGTTGCGGGTGAGGAGAGAGACGACGGAGTCACCTAGTGCAG”, the binding signal was 9250 fluorescence intensity (a.u.). To “CCCACCAGCCGCCGCCACCTCGGCCAATGCGCCGCCGCGCCGGAGTCACCTAGTGCAG” belongs 8050 fluorescence intensity (a.u.); to “GATAAAATATGCTTTTCATCCGGCCCAAGCTTCATTGACACGGAGTCACCTAGTGCAG”, 8030 fluorescence intensity (a.u.); to “TGCACAAACTAACAAGCGCATGTACCATCCTTTTTATTCTCGGAGTCACCTAGTGCAG”, 9360 fluorescence intensity (a.u.).

For “TTCCCGGATGCACGCCAATCCACCGGACAGTCAATTCAATCGGAGTCACCTAGTGCAG”, the binding signal is 8950 fluorescence intensity (a.u.). Turning to “TGAGTTTGTTCTGACCCGATTCGCCACTAGGCACCAGTATCGGAGTCACCTAGTGCAG”, the binding signal was 9200 fluorescence intensity (a.u.). To “AGCCATTTTATCCATACTATCTTTCTACTAGGTTCTGTTGCGGAGTCACCTAGTGCAG” belongs 9400 fluorescence intensity (a.u.); to “TCCCATGTAGTACCGCGCCACCACACAATCTTGCCCTGTTCGGAGTCACCTAGTGCAG”, 10200 fluorescence intensity (a.u.); to “CTAACGGTCCACGACTGTTTGACCGAACCGCCAGTACAACCGGAGTCACCTAGTGCAG”, 10500 fluorescence intensity (a.u.). With “TGCCTCGCCCTCGCTCTCCTCGTTTCACACTTCTCCGCTCCGGAGTCACCTAGTGCAG”, the binding signal was 8820 fluorescence intensity (a.u.).

As for “ATTGGTTGGTTTAGCTCAAGTGTTTTGCATATGCAAGTCTCGGAGTCACCTAGTGCAG”, the binding signal was 10900 fluorescence intensity (a.u.).

For the sequence “CCAGTTTGTATCTCATGTATTGGGCCTCGAAATCTGGTATCGGAGTCACCTAGTGCAG”, the binding signal is 12200 fluorescence intensity (a.u.). For “CTTGTCCCGTATCCGCGCCCCGCGTTCGCATCGATCGATCCGGAGTCACCTAGTGCAG”, the binding signal is 12200 fluorescence intensity (a.u.). For the sequence “CGTGTCCAGCTATATATTCAGTGTTTCGACAATTTCGTCTCGGAGTCACCTAGTGCAG”, the binding signal was 8990 fluorescence intensity (a.u.). On to “TCCTACGCATCCTCTCCTATCTCCATCCACGGCGAGCACTCGGAGTCACCTAGTGCAG”, for which the binding signal was 8220 fluorescence intensity (a.u.).
